Results are given in words; binding and its absence hold for the method and conditions named. Some binding calls cover weakened binding; strength is not graded here.
Biological target: T1, M.EcoR124INT methyltransferase (UniProt P10484 1-520; P10485 1-215)
T1 construct: HsdM (modification subunit, M) of the Type I restriction-modification system EcoR124I; SNT: residues 1-215 of the parent specificity subunit HsdS (S) of EcoR124I, holding the N-terminal target recognition domain and the central conserved region; Complex formed beforehand (M and SNT), to which HsdR was added; M2 stoichiometry is printed for Type I MTases in general (M2S); 'two modified SNT …
T1 sequence (looked up) 1: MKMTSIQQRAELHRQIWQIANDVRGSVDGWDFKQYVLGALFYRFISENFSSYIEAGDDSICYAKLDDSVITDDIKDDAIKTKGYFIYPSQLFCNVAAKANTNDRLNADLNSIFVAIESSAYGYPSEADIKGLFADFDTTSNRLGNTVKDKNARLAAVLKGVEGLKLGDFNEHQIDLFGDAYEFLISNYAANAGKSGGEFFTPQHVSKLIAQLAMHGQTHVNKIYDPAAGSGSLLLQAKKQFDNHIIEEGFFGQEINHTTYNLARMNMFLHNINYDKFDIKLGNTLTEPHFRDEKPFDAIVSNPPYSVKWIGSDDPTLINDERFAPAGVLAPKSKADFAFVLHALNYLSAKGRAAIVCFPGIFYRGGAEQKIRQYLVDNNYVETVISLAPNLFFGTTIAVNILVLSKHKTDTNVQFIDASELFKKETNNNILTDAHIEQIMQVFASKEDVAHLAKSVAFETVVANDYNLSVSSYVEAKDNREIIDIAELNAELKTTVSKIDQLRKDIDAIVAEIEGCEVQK
T1 sequence (looked up) 2: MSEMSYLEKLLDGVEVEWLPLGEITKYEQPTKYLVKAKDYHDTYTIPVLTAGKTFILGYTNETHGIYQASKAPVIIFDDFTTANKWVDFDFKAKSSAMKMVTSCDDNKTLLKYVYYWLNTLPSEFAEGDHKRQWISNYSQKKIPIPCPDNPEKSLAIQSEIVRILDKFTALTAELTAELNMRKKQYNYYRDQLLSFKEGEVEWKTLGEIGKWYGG
Experiment: AUC; sedimentation velocity, HsdR:MTase at 1:1, free protein and with DNA; data not shown; both purified

B1: HsdR from EcoR124I (enzyme, UniProt P10486 1-1038, looked up)
chain: MTHQTHTIAESNNFIVLDKYIKAEPTGDSYQSESDLERELIQDLRNQGYEFISVKSQSAMLANVREQLQNLNGVVFNDSEWRRFTEQYLDNPSDGILDKTRKIHIDYICDFIFDDERLENIYLIDKKNLMRNKVQIIQQFEQAGSHANRYDVTILVNGLPLVQIELKKRGVAIREAFNQIHRYSKESFNSENSLFKYLQLFVISNGTDTRYFANTTKRDKNSFDFTMNWAKSDNTLIKDLKDFTATCFQKHTLLNVLVNYSVFDSSQTLLVMRPYQIAATERILWKIKSSFTAKNWSKPESGGYIWHTTGSGKTLTSFKAARLATELDFIDKVFFVVDRKDLDYQTMKEYQRFSPDSVNGSENTAGLKRNLDKDDNKIIVTTIQKLNNLMKAESDLPVYNQQVVFIFDECHRSQFGEAQKNLKKKFKRYYQFGFTGTPIFPENALGSETTASVFGRELHSYVITDAIRDEKVLKFKVDYNDVRPQFKSLETETDEKKLSAAENQQAFLHPMRIQEITQYILNNFRQKTHRTFPGSKGFNAMLAVSSVDAAKAYYATFKRLQEEAANKSATYKPLRIATIFSFAANEEQNAIGEISDETFDTSAMDSSAKEFLDAAIREYNSHFKTNFSTDSNGFQNYYRDLAQRVKNQDIDLLIVVGMFLTGFDAPTLNTLFVDKNLRYHGLMQAFSRTNRIYDATKTFGNIVTFRDLERSTIDAITLFGDKNTKNVVLEKSYTEYMEGFTDAATGEAKRGFMTVVSELEQRFPDPTSIESEKEKKDFVKLFGEYLRAENILQNYDEFATLKALQQIDLSDPVAVEKFKAEHYVDDEKFAELQTIRLPADRKIQDYRSAYNDIRDWQRREKEAEKKEKSTTDWDDVVFEVDLLKSQEINLDYILGLIFEHNRQNKGKGEMIEEVKRLIRSSLGNRAKEGLVVDFIQQTNLDDLPDKASIIDAFFTFAQREQQREAEALIKEENLNEDAAKRYIRTSLKREYATENGTELNETLPKLSPLNPQYKTKKQAVFQKIVSFIEKFKGVGGKI
notes: HsdR (restriction / motor subunit) of the Type I restriction-modification system EcoR124I; about 120 kDa as printed; For one SANS sample the same protein was made about 75% deuterated (85% D2O minimal medium); also called R subunit; motor subunit; source: expressed and purified as described previously [24]; deuterated form from BL21 (DE3) with the expression plasmid pBGSR124
With B1 the binding was “binds”.

From PMC3320862, “Structural and Functional Analysis of the Symmetrical Type I Restriction Endonuclease R.EcoR124INT” (PLOS One, 2012)
